The test addresses FLAG-tagged PPARγ2 ∆PPYY mutant (PPYY-sequence-deleted) (UniProt P37238). The test is described as follows: co-IP; HEK293 cells transiently co-expressing T7-tagged NEDD4 and FLAG-tagged PPARγ2 or its PPxY mutants; immunoprecipitated with anti-PPARγ antibody (rabbit clone T.647.5 in Fig. 1C, mouse anti-PPARγ in Fig. 2B,C); 25 mM Tris-HCl, 150 mM NaCl, 1% NP-40.

Protein sequences, listed by entry. Tags and fused reporters are not part of them.
UniProt Q62940: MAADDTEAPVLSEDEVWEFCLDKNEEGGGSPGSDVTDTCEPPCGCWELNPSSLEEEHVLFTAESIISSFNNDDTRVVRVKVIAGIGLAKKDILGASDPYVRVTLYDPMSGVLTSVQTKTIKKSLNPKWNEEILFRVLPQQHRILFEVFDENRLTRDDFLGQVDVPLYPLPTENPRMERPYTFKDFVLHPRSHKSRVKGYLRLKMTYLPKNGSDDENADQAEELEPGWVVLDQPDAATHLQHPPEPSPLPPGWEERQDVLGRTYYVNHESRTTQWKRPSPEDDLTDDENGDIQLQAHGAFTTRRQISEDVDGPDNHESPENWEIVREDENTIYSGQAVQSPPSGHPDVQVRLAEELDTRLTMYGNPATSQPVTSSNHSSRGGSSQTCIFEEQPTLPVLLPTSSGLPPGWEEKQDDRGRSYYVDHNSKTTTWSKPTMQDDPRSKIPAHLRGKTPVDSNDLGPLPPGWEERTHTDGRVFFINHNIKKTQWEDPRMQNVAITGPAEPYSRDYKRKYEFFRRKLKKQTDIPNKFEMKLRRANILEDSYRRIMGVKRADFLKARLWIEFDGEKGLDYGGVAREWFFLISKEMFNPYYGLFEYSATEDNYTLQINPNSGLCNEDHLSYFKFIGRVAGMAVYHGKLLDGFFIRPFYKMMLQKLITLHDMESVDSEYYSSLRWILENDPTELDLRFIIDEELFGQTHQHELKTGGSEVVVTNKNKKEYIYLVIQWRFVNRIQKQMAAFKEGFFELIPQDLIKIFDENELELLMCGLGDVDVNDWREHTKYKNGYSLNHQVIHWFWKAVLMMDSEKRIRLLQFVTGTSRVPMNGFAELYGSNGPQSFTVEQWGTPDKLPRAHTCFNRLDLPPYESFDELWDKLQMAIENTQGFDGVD

These are yes or no findings as the source states them, for the method shown. Binding seen in cells or lysates may run through a third protein. A result given as binding can be weak or reduced; the word gives no strength.

In PMC5137149 one finds binding data, which are given here for one substance.

For “T7-tagged NEDD4 (rat, wild type; pRc-CMV-T7-NEDD4) (from UniProt Q62940 1-887) (enzyme)”, the binding entry was “binds”.
